Data taken from article PMC10163288.
The other results are listed elsewhere or left out.

B1: il10ra_site1_sap_17_mot_b26a303360aa2756ef5b79665ce52f45_0001_000000179_0001_1_11_H_._HHH_b2_06946_0001_0000400005_0000001_0_0001_af2pred_0001 (protein)
chain: SSSSSEAEELVESALRAARIAREANDEEALKQALHAAKNTAKNHNNEELRELVEKVEEELHSSSS
B2: il10ra_site1_normal_mot_8756ee2cf497b5429c717dfc0c0bcfd6_0001_000000186_0001_1_13_H_._HHH_b2_04414_0001_0000600044_0000001_1 (protein)
chain: SSSSSSDELYRLLRRAAELNHEGNEEEARELVEQALELAEELNNDVAVAQAEYLLRQISSSSSSS
B3: il10ra_site1_sap_16_mot_HHH_b2_03553_000000260_0001_23_40_H_._HHH_b1_00984_0001_0000400023_0000002_0_0001 (protein)
chain: SQLMERSLKWVLERGDEETAKAAVEAMLRSRGVPPEEIEEILKEFEELLKKDPEEAVEFVVRLLE
B4: il10ra_site1_sap_20_mot_HHH_b1_06497_af2_000000119_0001_1_18_H_._4e2ac67898ad60a133cbede7db6c2933_0001_af2_0001_0000200008_0000002_0_0001 (protein)
chain: SSSSDDVFHRAWKLFREVAELLEEGDEERIEELLEEIEELYRATNNPALKAMLRAIRLRLNSSSS
B5: il10ra_site1_sap_8_mot_HHH_b1_06348_000000162_0001_1_15_H_._HHH_b1_06922_0001_0000100010_0000001_0_0001_af2pred_0001 (protein)
chain: SSSSSEAEKALRWFLRAVEELLKRGNPEAAKLALRDARFAAKFLNDEEIEERLEELEKLLDSSSS
B6: il10ra_site1_sap_17_mot_HHH_b1_05357_000000034_0001_23_39_H_._HHH_b2_07597_0001_0000100003_0000001_0_0001 (protein)
chain: SSSSSNEEQLRTRIEALLWFAKQADNKEALKLMLEFAEEAARELGDPEIERKVEEVEEELSSSSS
B7: il10ra_site1_sap_19_mot_HHH_b1_05056_000000217_0001_1_20_H_._HHH_b1_06884_0001_0000200009_0000002_0_0001 (protein)
chain: SSSSDLEERIEELEEEIKELEERGDKERVLRLLQEILQLIYHLQDKEKLRRLWEKLAKSRSSSSS
B8: il10ra_site1_sap_11_mot_HHH_b1_07743_af2_000000164_0001_42_55_H_._HHH_b2_01981_0001_0000100002_0000001_0_0001 (protein)
chain: SSSSDDEVLELSKEAFRLALRGDPEEAKEVLEEALRLAEEAGDERLAKIIRDLLKSLEAKSSSSS
B9: il10ra_site1_sap_19_mot_HHH_b1_08755_af2_000000053_0001_1_20_H_._HHH_b2_00911_af2_0001_0000400013_0000001_1_0001_af2pred_0001 (protein)
chain: SSSSSSIERAARLTLLLARLAVEGDEEEFEEVAKEVEEIAEELGNEALKELLEELHKRIHSSSSS
B10: il10ra_site1_normal_mot_HHH_b1_08755_af2_000000053_0001_1_20_H_._ems_3hC_645_0001_0001_0000400025_0000001_0 (protein)
chain: SSSEQEVFELVMEVLQVAFRAGDPEAMEEAYELSREAAEAAHNNDEEALKEVSERLEEFIEEFSS
B11: il10ra_site1_normal_mot_HHH_b1_05860_000000142_0001_1_19_H_._HHH_b1_06300_0001_0000100004_0000002_0 (protein)
chain: SSSSTEEVYKLLREAAELLDEGNPEEARKVLEEAREIAEELNNELFKIQLEFLLRTIEEYSSSSS
B12: il10ra_site1_sap_19_mot_HHH_b1_06816_000000239_0001_1_19_H_._HHH_b1_04199_0001_0000100004_0000002_0_0001 (protein)
chain: SSSSDEVEEYVRLALRFARWLYEVGDEEALRRMLKAARQVAERGNDPEAQELVREVEEELSSSSS
B13: il10ra_site1_sap_32_mot_HHH_b1_03763_000000278_0001_22_38_H_._HHH_b1_07630_0001_0000200010_0000002_0_0001_af2pred_0001 (protein)
chain: SSSSDERAQELAELTARFARFLAENGDHEAARFLLEAAEQILKKENDEELLEELRELLEELSSSS
B14: il10ra_site1_normal_mot_HHH_b1_05672_af2_000000246_0001_1_19_H_._HHH_b2_03011_0001_0000100004_0000002_0 (protein)
chain: SSSDLEERVAELLFRALRLLAEGDEEEARELIEEAEHLARERNDEELLRYVEILLRFLEARSSSS
B15: il10ra_site1_normal_mot_1c3c3e46dde0d4e4be3ec3dd9add6289_0001_000000096_0001_34_50_H_._HHH_b1_01049_0001_0000100004_0000001_1 (protein)
chain: SSSSTEETHEVYRLSREALELIFEGDREEVEEILERLEEIAREFNNPFVEFVLRALERALGSSSS
B16: il10ra_site1_sap_19_mot_HHH_b1_05370_000000138_0001_1_16_H_._HHH_b2_08139_0001_0000300046_0000002_0_0001 (protein)
chain: SSSSSEERREAYELLRELAKVIHEGDEERAEELIERIRELLEEVNDRILLAVLEYLERHLNSSSS
B17: il10ra_site1_normal_mot_HHH_b2_08172_af2_000000094_0001_41_56_H_._d0d27a57e4302dd0dd5ebafbde421892_0001_1_af2_0001_0000100002_0000002_0 (protein)
chain: SEEEEVREVLEEVVPDPEVVRLLELAFKRQLEQGSPPEDVLRALLLLARAAGDPDAFRALELLLK
B18: il10ra_site1_normal_mot_HHH_b2_00441_000000147_0001_1_18_H_._HHH_b2_05319_0001_0000300022_0000001_0 (protein)
chain: SSSSSSEVERAVRRLLHAARHLDEEYRELALKFAEALAKSENNEELQELVREVKEELERSSSSSS
B19: il10ra_site1_normal_mot_6bb093d23f5042b6c551c363657da53b_0001_1_000000153_0001_51_65_H_._HHH_b1_04905_0001_0000400014_0000002_0_af2pred_0001 (protein)
chain: SSSSSSEEELEELIRQIEEALERNDPELVVRLLRELARFAIKLSDQEAIRFVLEVAKKLGSSSSS
B20: il10ra_site1_sap_15_mot_HHH_b2_07873_af2_000000172_0001_1_19_H_._HHH_b2_03857_0001_0000100009_0000001_0_0001_af2pred_0001 (protein)
chain: SSSSDDRERAARRLLRAIRRAIELGDEELAKLALRVLERLLELLGDEELERLFEELERLVNSSSS
B21: il10ra_site1_sap_16_mot_HHH_b2_00800_af2_000000047_0001_1_20_H_._HHH_b2_01966_af2_0001_0000300020_0000001_0_0001_af2pred_dldesign_0_af2pred (protein)
chain: SSSSSDPEKAKEVNELLEQAKKEKDPEKAAELLRKATRLAWELGDSKLIQKVKDVAEELLSSSSS
B22: il10ra_site1_normal_mot_HHH_b2_00475_000000107_0001_44_57_H_._HHH_b1_00662_0001_0000100003_0000002_0 (protein)
chain: SSSSSIEERIVQLLLRALRLHVEGNPEEAERLIEEAHELAEELGDPELERYIRILLHFVKSSSSS
B23: il10ra_site1_normal_mot_3af0db62db2b275566dae2e03bf881fa_0001_000000003_0001_37_50_H_._HHH_b2_02568_0001_0000200009_0000002_0 (protein)
chain: SSSSSTQERQTAEAALFFAKFIEDPEAARRSAEYALELAEEYGDEELAEEIKELLEELGSSSSSS
B24: il10ra_site1_sap_24_mot_HHH_b2_08265_af2_000000206_0001_22_38_H_._HHH_b2_06062_0002_0000200006_0000002_0_0001_af2pred_dldesign_0_af2pred (protein)
chain: SSSSDPEEDEKLIEEIEKLIEEGKTEEAVEKLRELTRRAWESGDSALLQKAVELAKKIEEESSSS
B25: il10ra_site1_sap_14_mot_HHH_b2_00277_af2_000000172_0001_1_17_H_._HHH_b1_05907_0001_0000200015_0000002_0_0001 (protein)
chain: SSSSSEREEELKELEERAKELLEEGDTREASRLLAEAVRLAIRLGDPETFQELWELVKRIASSSS
B26: il10ra_site1_sap_21_mot_HHH_b1_03763_000000209_0001_22_38_H_._HHH_b2_04689_af2_0001_0000200006_0000001_0_0001_af2pred_0001 (protein)
chain: SSSSSEYEERVLRLIVEAFRLALNGNPEEAEKVLEEAEKILEENNDERHLLTVRRLLELLGSSSS
B27: il10ra_site1_sap_19_mot_HHH_b2_03284_af2_000000155_0001_1_21_H_._HHH_b1_04583_0001_0000100015_0000001_0_0001 (protein)
chain: SSSSNEESAEKSVKHFLEAAKQIEDEEYVRMSFRFARWLAEVANDPELERLVEEVFEELQSSSSS
B28: il10ra_site1_normal_mot_HHH_b2_01205_000000166_0001_1_19_H_._HHH_b2_08156_0001_0000100001_0000001_0 (protein)
chain: SSSSSDARRVYELIRKAFELARRGNPEEARELMEEAEEIAEENNNLLLEFAIRFARRALESSSSS
B29: il10ra_site1_sap_14_mot_HHH_b1_07380_000000129_0001_1_20_H_._HHH_b1_04078_0001_0000100003_0000002_0_0001 (protein)
chain: SSSSSDEEEEEVEELIEQAKRIPDPRESSKILQRAVRIAIQISNEELLQEIWRLVKELASSSSSS
B30: il10ra_site1_sap_20_mot_HHH_b2_02497_000000141_0001_1_20_H_._HHH_b1_08287_0001_0000100024_0000001_0_0001_af2pred_0001 (protein)
chain: SSSDEDEKRARLAVRFIKWLLEQGDKRAVKHLLRALKELAKRLNDEELEEEIEELEELLEKLSSS
B31: il10ra_site1_sap_10_mot_0cd074c2d6d3de76f1399c5a775575d2_0001_1_af2_000000000_0001_16_30_H_._6bb093d23f5042b6c551c363657da53b_0001_1_0001_0000100004_0000001_0_0 … (protein)
chain: SSSSSSSDEVKARALTFFAKISDNPEAAKLSLEMALELARKLGDEELVEEIEELLEELSSSSSSS
B32: il10ra_site1_sap_22_mot_HHH_b2_06480_af2_000000075_0001_1_18_H_._HHH_b1_05928_0001_0000400032_0000001_0_0001_af2pred_0001 (protein)
chain: SSSSSSAERAVRLTIRSAKQQEDPELRKLSLRDALHSAKHVNDEELREEVERLLEEVESSSSSSS
B33: il10ra_site1_normal_mot_HHH_b2_00273_000000062_0001_23_39_H_._HHH_b1_08219_af2_0001_0000100003_0000002_0 (protein)
chain: SSSSSDEEERLRELLEEVEEAIEEGDDEKALRLIQEALRIVFRLGDQEALQLLWELAKLASSSSS
B34: il10ra_site1_sap_11_mot_HHH_b1_06348_000000162_0001_1_15_H_._HHH_b2_01068_0001_0000300025_0000001_0_0001 (protein)
chain: SSSSDELRELFEAAARLLEQAEEWGDERLIEAMLLALRMLAERLKDPELEREVEELERELSSSSS
B35: il10ra_site1_sap_15_mot_HHH_b1_05357_000000034_0001_23_39_H_._2882495fe543bf04d475310816427418_0001_0001_0000100004_0000001_0_0001_af2pred_0001 (protein)
chain: SSSSSSSAERAVRLLLRAAKEIEDEEALKLALRDAEAAARSLNDEELEELVEEVKRELSSSSSSS
B36: il10ra_site1_sap_16_mot_HHH_b2_07145_000000168_0001_24_40_H_._HHH_b1_00810_0001_0000100002_0000002_0_0001_af2pred_0001 (protein)
chain: SSSSSDREVVRRVRELLRRALEIEDEEEAREVLEEALELAEEGNNAVLVAVLRYALERLDSSSSS
B37: il10ra_site1_normal_mot_HHH_b1_00999_000000080_0001_41_55_H_._ems_p1-16H-GBL-16H-GABBL-15H_0180_0001_0001_0002_0001_0000700042_0000001_0 (protein)
chain: SSSSSSEVIQLIQRAVRAAFRNGDEEALRQLWELVKKFGEGIISEEEAREIAEEILEELGSSSSS

The binders below were run against il10ra, Q13651 (assay: yeast display titration).

Apparent Kd, inactive:
B1 no binding seen
B2 > 885 nM
B3 no binding seen
B4 > 455 nM
B5 no binding seen
B6 no binding seen
B7 no binding seen
B8 no binding seen
B9 no binding seen
B10 no binding seen
B11 no binding seen
B12 no binding seen
B13 no binding seen
B14 no binding seen
B15 no binding seen
B16 no binding seen
B17 no binding seen
B18 no binding seen
B19 no binding seen
B20 no binding seen
B21 no binding seen
B22 no binding seen
B23 no binding seen
B24 no binding seen
B25 no binding seen
B26 no binding seen
B27 no binding seen
B28 no binding seen
B29 no binding seen
B30 no binding seen
B31 no binding seen
B32 no binding seen
B33 no binding seen
B34 no binding seen
B35 no binding seen
B36 no binding seen
B37 no binding seen

Pulled one by one from the entries so far, 2 records:
Apparent Kd, inactive:
B13 no binding seen
B6 no binding seen
